Assay results: PubChem BioAssay AID2685 (National Center for Advancing Translational Sciences (NCATS), 2010)
The other results are listed elsewhere or left out. The main result of the screen is listed elsewhere. These columns were measured beside it and carry no call. Most of these compounds were active or inconclusive in the main read-out, so they are no random draw. Potencies come from curve fits of mixed quality, noted in brackets.

Assay: qHTS Assay for Lipid Storage Modulators in Drosophila S3 Cells;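 on cell number change: cells counted by Cell Tracker Red CMTPX staining in the red channel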
Conditions: BODIPY lipid droplet fluorescence, 18-24 h; for cell number change: measured here: cell count max response, cells fed with added oleic acid
Procedure, shortened: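 Drosophila S3 cells loaded with oleic acid (400 uM, as added) and compounds at several concentrations; lipid droplets imaged by 488-nm laser-scanning cytometry, 500–530 nm intensity and object ratio to cell channel. Percent activity normalized to 20 uM Triacsin C.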

[1] = measured here: lipid fluorescence (Fed channel) AC50, cells fed with added oleic acid
[2] = measured here: cell number channel AC50, cells fed with added oleic acid

SMILES | cell number change [%] | AC50 [1] | AC50 [2]
Clc1ccc(-c2ccc(CNCC3CCCO3)o2)cc1 (stereo not given) | 28.5 | 23.1 µM [rising, partial curve, poor fit] | –
CSc1cccc(NC(=S)NCCCN2CCN(c3ccc(F)cc3)CC2)c1 | – | 0.13 µM [rising, full curve, poor fit] | –
CCCCN(C)CC(O)Cn1cc(/C=C/C(=O)c2cccs2)c2ccccc21 (stereo not given) | -8.27 | 16.4 µM [falling, single point] | –
COc1ccc(NCC(=O)n2c(C)c(C)c3ccccc32)cc1OC | 22 | 0.651 µM [rising, full curve] | –
CSc1nnc(-c2ccccc2Cl)o1 | -75.6 | 0.13 µM [falling, full curve, poor fit] | 20.6 µM [falling, partial curve, poor fit]
Cc1ccccc1C(=O)NC(C)C1CC2CCC1C2 (stereo not given) | 5.13 | – | –
Cc1ccccc1Cn1ccc(NC(=O)c2cc3ncc(Br)cn3n2)n1 | -2.42 | – | 5.17 µM [falling, single point]
CSc1ccc(/C=C(\C#N)C(=O)NC2CCCCC2)cc1 | 3.89 | 5.17 µM [falling, full curve, poor fit] | –
CCN(Cc1nc(-c2ccccc2)no1)C(=O)COc1cccc(OC)c1 | -5.22 | 0.116 µM [falling, full curve, poor fit] | –
C/C(=N\NS(=O)(=O)c1ccccc1)c1cc(Cl)cc(Cl)c1O | -21.4 | 3.26 µM [falling, partial curve] | –
O=S(=O)(Nc1ccccc1)c1ccc(NS(=O)(=O)c2cccs2)cc1 | -5.26 | 0.447 µM [falling, partial curve] | –
COc1ccc(-c2nn(-c3ccccc3)cc2/C=C(\C#N)S(=O)(=O)c2ccccc2)cc1OC | -33.3 | 6.51 µM [rising, single point] | 14.6 µM [falling, single point]
CCOC(=O)CSCc1c(C#N)c2ccccc2n1C | 7.56 | 6.51 µM [falling, single point] | 0.116 µM [falling, full curve, poor fit]
CCOC(=O)CN1C(=O)C(O)=C(C(C)=O)C1c1ccc([N+](=O)[O-])cc1 (stereo not given) | 40.8 | 2.06 µM [rising, full curve, poor fit] | –
COc1ccccc1NC(=O)CSc1nnnn1-c1ccccc1OC | -20.5 | 0.731 µM [falling, single point] | –
Cc1ccc(S(=O)(=O)NC2=NCN(CC(=O)O)CN2)cc1 | 19.6 | – | –
Cc1cc(NC(=O)CCl)n(-c2nc3ccccc3s2)n1 | 13.9 | 6.51 µM [rising, single point] | –
O=C(c1ccncc1)c1ccc(N2CCN(C3CC(=O)N(Cc4ccccc4)C3=O)CC2)cc1 (stereo not given) | – | – | 4.11 µM [rising, single point]
Cc1ccc(-c2ccc(=O)n(CCC(=O)N3CCN(c4ccccc4)CC3)n2)cc1 | – | 0.82 µM [rising, single point] | –
N#Cc1ccc(C(=O)NC2=NCCS2)cc1 | – | – | 0.82 µM [rising, single point]

SMILES | cell number change [%] | AC50 [1] | AC50 [2]
CCOC(=O)c1c(C)[nH]c(C(=O)COC(=O)c2[nH]c(C)c(C(C)=O)c2C)c1C | -4.14 | 0.092 µM [rising, full curve, poor fit] | –
C/C(Cn1nnc([N+](=O)[O-])n1)=N\NC(=O)c1ccccc1Cl | – | 29.1 µM [rising, single point] | –
Cc1[nH]c2ccccc2c1SCC(=O)N1CCN(c2ccccc2)CC1 | 15.6 | 0.00461 µM [rising, full curve, poor fit] | –
COc1cc(-c2nnc(COC(=O)c3cc(C)no3)o2)cc(OC)c1OC | -24 | – | –
COCCCNC(=O)c1nc2ccccc2c(=O)n1NC(=O)Nc1c(Cl)cccc1Cl | -8.5 | 1.46 µM [rising, partial curve, poor fit] | –
C=C(Br)Cn1c(CC)nc2ccccc21 | -3.02 | 0.92 µM [rising, partial curve] | –
CC1=C(C(=O)OC2CCCC2)C(c2ccc(C)o2)C2=C(CC(c3cccs3)CC2=O)N1 (stereo not given) | -9.45 | 6.51 µM [rising, single point] | –
COC(=O)CC1NCCNC1=O (stereo not given) | – | 0.058 µM [falling, full curve] | –
COc1ccc(CC(=O)NCC2(c3ccc(OC)c(OC)c3)CCOCC2)cc1 | -4.8 | – | –
O=C(Nc1ccncc1)Nc1ccc(Cl)cc1 | – | – | 0.731 µM [falling, single point]
CC(C)N(Cc1ccccc1)C(=O)CSc1nccn1C | -35.9 | – | –
Cc1ccc(C)c2nc(SCC(=O)N3CCCc4ccccc43)c(C#N)cc12 | – | 6.51 µM [rising, partial curve, poor fit] | –
COc1cccc(NC(=S)N(CCCN2CCCC2)Cc2cccn2Cc2ccc(Cl)cc2)c1 | -46 | 29.1 µM [falling, single point] | 7.31 µM [falling, partial curve]
O=C(CSc1nnnn1-c1ccccc1)NC(=O)Nc1ccc2c(c1)OCCO2 | -19.6 | – | 0.0291 µM [falling, full curve, poor fit]
CC(C)c1ccc(C(=O)NN2CCOCC2)cc1 | 6.49 | – | –
CN(C)c1ccc(NC(=O)CC(NCc2ccccn2)C(=O)O)cc1 (stereo not given) | 44.3 | 3.26 µM [falling, single point] | 29.1 µM [rising, single point]
C/C=C(\C)CN1CCc2cc(OC)c(OC)cc2C1 | -36.3 | – | 7.31 µM [falling, partial curve, poor fit]
Cc1ccc(NC(=O)NCc2nc3ccccc3n2C)cc1 | 16 | 0.103 µM [rising, partial curve, poor fit] | 0.00411 µM [rising, full curve, poor fit]
Cc1cc(C)c(-c2cc(C(=O)Nc3c(C)n(C)n(-c4ccccc4)c3=O)[nH]n2)c(O)c1 | 25.5 | 29.1 µM [rising, single point] | –
O=C(N/N=C\c1ccccc1)c1ccccc1-n1cccc1 | -14.1 | – | –

SMILES | cell number change [%] | AC50 [1] | AC50 [2]
O=C(Nc1nc(-c2ccccc2)cs1)c1ccc(Br)o1 | -29.1 | 10.3 µM [falling, partial curve, poor fit] | –
O=C(NCCC1=CCCCC1)C1CCN(c2nc3ccccc3o2)CC1 | 9.28 | 2.06 µM [falling, full curve] | –
CC(=O)n1cc(C(C[N+](=O)[O-])SCCN)c2ccccc21 (stereo not given) | -57.2 | 14.6 µM [falling, partial curve] | 29.1 µM [falling, single point]
CCOC(=O)CNc1c(N2CCN(c3ccccn3)CC2)c(=O)c1=O | 10.1 | – | –
Cc1cc(C)cc(-n2nnnc2SCC(=O)Nc2cccc(NC(=O)c3ccco3)c2)c1 | -20.1 | 14.6 µM [falling, single point] | –
O=C(NCc1ccco1)c1ccccc1 | – | 0.58 µM [falling, full curve] | –
O=C1CCN(Cc2ccc(O)cc2)CCN1CCO | 11.3 | 4.11 µM [rising, partial curve] | –
CC(C)(C)c1ccc(-c2noc(CCC(=O)NCC3CCCO3)n2)cc1 (stereo not given) | -65.7 | 20.6 µM [falling, partial curve] | 23.1 µM [falling, partial curve]
Cc1sc2ncn(CC(=O)N3CCCCC3)c(=O)c2c1C | -13.9 | 3.26 µM [falling, single point] | 3.66 µM [falling, single point]
CCOC(=O)c1ccc(CN2C(=O)c3ccccc3S2(=O)=O)cc1 | 1.4 | – | 0.058 µM [rising, full curve, poor fit]
CCCCC(NC(=O)Cc1c(C)c2cc3c(C)c(C)oc3c(C)c2oc1=O)C(=O)O (stereo not given) | 37.5 | 29.1 µM [rising, single point] | 0.517 µM [rising, full curve, poor fit]
COc1ccc(-c2noc(CSc3nnc(CCc4ccccc4)n3-c3ccccc3)n2)cc1OC | 10.8 | 0.0259 µM [rising, full curve, poor fit] | –
CC(=O)c1cccc(NC(=O)C(C)OC(=O)CCC2CCCCC2)c1 (stereo not given) | -13.3 | 0.651 µM [falling, full curve, poor fit] | 4.61 µM [falling, single point]
COc1ccccc1-c1cc(C(=O)N2CCN(c3ccccc3)CC2)no1 | 33 | 29.1 µM [rising, single point] | 32.6 µM [rising, single point]
O=c1[nH]c(-c2ccc(Cl)cc2)nc(=S)[nH]1 | 6.09 | 0.651 µM [falling, single point] | –
O=[n+]1c2c(n([O-])c3cc(F)ccc31)CCCC2 | 20.7 | 29.1 µM [rising, single point] | –
CCc1ncc(CN2CCCC(C(=O)Nc3ccc(-c4cscn4)cc3)C2)cn1 (stereo not given) | 114 | – | 29.1 µM [rising, partial curve, poor fit]
CCOC(=O)c1cc(NC(=O)N(CC)CC)c(C)nc1C | 30 | 0.184 µM [rising, full curve, poor fit] | –
Cc1ccc(NC(=O)CN(C)c2ccc(S(=O)(=O)N3CCN(C)CC3)cn2)cc1 | -28.3 | 14.6 µM [rising, partial curve, poor fit] | –
Oc1ccc(C2C=C(c3ccc(F)cc3)Nc3ncnn32)cc1 (stereo not given) | 21.5 | 0.103 µM [rising, full curve, poor fit] | –

Single records (already shown).
`Cc1cc(C)cc(-n2nnnc2SCC(=O)Nc2cccc(NC(=O)c3ccco3)c2)c1` is entered as cell number change [%]: -20.1; AC50 [1]: 14.6 µM [falling, single point]
`O=C1CCN(Cc2ccc(O)cc2)CCN1CCO` is entered as cell number change [%]: 11.3; AC50 [1]: 4.11 µM [rising, partial curve]
